# Source: PubChem BioAssay AID1347426 (Functional Genomics Laboratory (NCATS/FGL), 2020)
# Hit rate of the full screen: of about 31,000 sequences, about 1,400 (4.5%) were called active.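 Rule for the calls: active = median seed-adjusted z-score above 1 or below -1; inactive = the rest.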 The list shows a part of the results.
# Assay: Novel Modifiers of Survival Motor Neuron (SMN) Protein: Gene Identification via Genome-wide siRNA Screen;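 note: luminescence tracks full-length SMN protein made from the SMN2 reporter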
# Details: HEK293T SMN2-luciferase reporter, siRNA knockdown, 72 h; actives lie on both sides
# Method in brief: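 Steps: spot 1 pmol siRNA, add Lipofectamine RNAiMax in serum-free DMEM, seed HEK293T SMN2–luciferase reporter cells; incubate 72 h at 37 °C; add ONE-Glo; normalize luminescence to control siRNA, log10, MAD. Candidates: |MAD| > 1.0.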
row,Sequence,median seed-adjusted z-score
1,CAGCAGAUCCUUUCACGAATT against FRMD4B,inactive: -0.567
2,CAGAGAUCGUAUUGAUAUUTT against SNAP23,inactive: 0.31
3,CGACUAAACAUAUCUGGAATT against GPR124,inactive: 0.00658
4,GCAAAGGCACUAAGAAGUUTT against GJA8,inactive: 0
5,GGUUGUUGGUUGGACUGUUTT against GDE1,inactive: -0.256
6,CCUCAACCGUGGACAAUAUTT against MLH1,inactive: -0.215
7,CCUUGAAGAGAGAACGGAATT against MYH14,inactive: -0.307
8,CUCUCUCUCUACGAACAUUTT against TCF7,inactive: -0.338
9,AGAGGUCUUCGACAAUAAATT against CD9,active: -1.02
10,UCGAUGUACUGGAGACGGATT against NUCB1,inactive: 0.232
11,CACAUUGUCUUACACUGAATT against SMAD6,inactive: -0.167
12,GUCUUUUGCUGCACGAGAATT against RTN4RL1,inactive: -0.537
13,CCAUCACCAUCUUGCAUGATT against KCNJ12,inactive: -0.641
14,AGUUCGAGGAAGACCUAAATT against DUSP10,inactive: 0.28
15,GUGAAGAUCUUGCCCGUCATT against SLC15A3,inactive: 0
16,CUUACGUGGUGACACGGUATT against MAPK9,inactive: 0.211
17,GUAUCAGCUUAUGAACUUATT against SLC5A11,inactive: -0.219
18,GAACACCUGCGAGCACAUUTT against UNC119,inactive: 0.171
19,CAAGCGAAGGAGAAACUCATT against MED4,inactive: -0.632
20,GGGAAUUGCCUGAACCUUUTT against ARHGAP17,inactive: -0.336
21,AACCUUUGAUUUUACAUCATT against KRT6C,inactive: -0.275
22,CUCUCCUCAUGGUCUAUUUTT against DPAGT1,inactive: -0.144

# Pulled one by one from the entries so far, 3 records:
row,Sequence,median seed-adjusted z-score
3,CGACUAAACAUAUCUGGAATT against GPR124,inactive: 0.00658
13,CCAUCACCAUCUUGCAUGATT against KCNJ12,inactive: -0.641
12,GUCUUUUGCUGCACGAGAATT against RTN4RL1,inactive: -0.537

# Next part.

row,Sequence,median seed-adjusted z-score
1,GCUCCUUCCAGACGAUGAATT against RCVRN,inactive: 0.562
2,CAACCGUGUUUUUCAUUCUTT against SERPINA4,inactive: 0.419
3,CCAUGCUCCAGUUAUCUUUTT against SLC10A6,inactive: -0.803
4,GCGGCUAACAGGAUAUGUATT against ACTN2,inactive: 0.165
5,GGGAGAACCUUCACACGUATT against ZNF354C,inactive: 0.648
6,AUAUCAACUUGACCCACCATT against B3GNT7,active: -1.05
7,AGACCCACAUGAUUGUACATT against ZNF710,inactive: 0
8,GAACUAACAAGUUCCGGAATT against ZC3H3,inactive: -0.622
9,GAUACAAUUUCAACACCUATT against GRIP1,inactive: 0.337
10,CGAAGGAAAUCAAGGGAAATT against TEAD2,inactive: 0.96
11,GUCCUACAUUAGUGCCUUATT against PSMB8,inactive: 0
12,UGAUUAGAACUGUCAAACATT against TRIM17,inactive: 0.574
13,CAUGAGUUGUGACAAAUCATT against BCL2L11,inactive: -0.0521
14,GCACAGAAUCAGAUAACAATT against CTSL1,inactive: 0.378
15,CGAACACCGGUGAGGUAUATT against SNRPD3,active: -2.69
16,GGAGUUAUCUGGUGACAAUTT against UROS,inactive: -0.248
17,UAAUAGAAUGUCUCCAAAGTT against HMGN2,inactive: -0.038
18,GAAAUUAUACCAAGGUGAATT against ZNF675,inactive: -0.343
19,GGAAAAAUCUCUCAUCGAATT against NAGA,inactive: -0.247
20,GGUGCAAGCUGUGAGAGUATT against KCTD18,inactive: -0.0473
21,CCAUGUACAGAGACAUUCATT against ZNF782,inactive: 0.117
22,CCAUUUAGCAGACAAAUAUTT against ZNF761,inactive: 0.291

row,Sequence,median seed-adjusted z-score
1,CCAUCUCGGAAGAUCUAAATT against MTSS1,inactive: 0.175
2,GGUGCUGUCUAGGCAAGAATT against JAK1,inactive: 0.0199
3,GGACAAUACGGGUAAUUGATT against DYNC1I1,inactive: -0.716
4,ACCCUGCUAUACUCCCUAUTT against MAPKAPK3,inactive: -0.506
5,UCAUCUUGAUCUUCUCUCUTT against SLC35C2,inactive: -0.483
6,CAGAAGGUAUGUUAAGCUATT against CRYL1,inactive: 0.0852
7,UCCGCACUGUGAAAGACUATT against CABP1,inactive: -0.192
8,GGGUCCUAGUGACUGAGAATT against GOLGA2,inactive: 0.18
9,AGACAAUUGUCACCAGGAUTT against LEP,inactive: -0.143
10,CCUUCAACCUGGACUACUATT against GPN2,inactive: 0
11,GGUUCUUGUUUUAUCCCUATT against GCNT1,inactive: 0.463
12,CCGAAUUGCUGAUCAUCCATT against SNX7,inactive: 0.146
13,AGGACUCCAUUGUGACAGATT against SLC22A8,inactive: 0.175
14,GCCCAAGGCCAAUUUUGAUTT against C8G,inactive: -0.622
15,CGACAGCGCGGAGUAUCUATT against CACNG8,inactive: 0.214
16,CUCUAAACCUUUGCCCUAUTT against AMZ2,inactive: 0.26
17,GCGAUGUACUCAAAGCUGUTT against MFI2,inactive: 0.365
18,AAGUAUUCUGAAUCCGUGATT against TPM2,inactive: 0.305
19,ACAUCUAUGUGCCCAUGGATT against NLGN4Y,inactive: 0.317
20,GCAGUAGCUACAGUACAUATT against USP3,inactive: -0.176
21,GCACAAGUGAUAAGAUGCATT against PTK7,inactive: 0.548
22,CUCCUAAAGUGCAUCGCAATT against GUF1,inactive: 0.119

row,Sequence,median seed-adjusted z-score
1,GGAUCAUAAAUGAAAGGGATT against FOXD4L4,inactive: -0.0372
2,GAAUGGGUCUUGUAAAUCATT against PPAT,active: -1.51
3,CGCUGACCCUGGAGAUGUATT against CALY,inactive: 0.216
4,GGACAUCAAUAUCGACGAUTT against AK7,inactive: -0.702
5,AGGUGUAUUCCGAACUUAATT against APOBEC3G,inactive: 0.00539
6,GGUAGAUAAUUUAGACUUATT against ZNF182,inactive: 0
7,CAUUUCGACUGGAUCAUAUTT against CLK1,inactive: -0.436
8,GGCUCCAGAGACUACUAUATT against CIRBP,inactive: -0.701
9,GUAUCAAGGUUACAUUGGUTT against PSMB7,inactive: 0.131
10,GGGAAAUUCUAGUUAAUCATT against SEC24D,inactive: 0.529
11,GAGCUUCGAUCAAAAUUGATT against HNRPK,inactive: 0.296
12,GAGCUGAAGUUAACCCUGUTT against RLN2,inactive: 0.877
13,CCCUAAAUGUAUCUCGGAATT against GRIN3A,inactive: 0.241
14,GCCUCGCUGUAAUUCUGCCTT against NDUFA3,inactive: -0.062
15,GACAAGCAAUGGGAUGAAATT against AAK1,inactive: 0.27
16,GGGUUACAUUUUUGAAGCATT against SOX18,inactive: 0.0663
17,GAAGGACUGUUGGACCUCATT against SYTL1,inactive: 0.0856
18,AGGAUAUUGUGAUUCAGCATT against POLR2G,active: -4.19
19,GUUGAGACCUUAGAGCACATT against CSF1R,inactive: 0.38
20,CGCCCAAGUUUAUUUCAGATT against ZNF564,inactive: 0.382
21,CGGCGGUGAAGAAACGGAATT against SYTL1,inactive: 0.0856
22,GGUUGGUUAGUGUCUAUUATT against POLR1B,inactive: -0.434

# Another view of part of the listing above:
row	Sequence	median seed-adjusted z-score
18	AGGAUAUUGUGAUUCAGCATT against POLR2G	active: -4.19
19	GUUGAGACCUUAGAGCACATT against CSF1R	inactive: 0.38
20	CGCCCAAGUUUAUUUCAGATT against ZNF564	inactive: 0.382
21	CGGCGGUGAAGAAACGGAATT against SYTL1	inactive: 0.0856

# Following part:

row,Sequence,median seed-adjusted z-score
1,CAUGAACCCAGUGAAGAUATT against IRF6,active: -1.79
2,GAAGAUUGAGGAGAUCUUUTT against CKM,inactive: -0.189
3,GGAUCUCUGGUUAAACACATT against RXRG,inactive: 0.16
4,ACAUCGCCCUUAUUGCUAUTT against FOXS1,inactive: 0
5,GCGAAUCCAGGAUCAAGAATT against TRIP4,inactive: -0.0385
6,GCAAAAAGGUGCGGAAGAATT against SYT5,inactive: 0.704
7,GCUACUAUCCUGACAGUUATT against SMARCC2,inactive: 0.0684
8,GGCUCUCGUUUUCCACGAATT against KCNK2,inactive: 0.257
9,GGGAUGUACUGUCCAACGATT against PPM1M,inactive: 0
10,GGCCUUCACAUGUAGCUCATT against ZNF35,inactive: -0.332
11,GCGAUGAGGUGGACUUGUATT against ST3GAL1,inactive: 0.255
12,CCCUCUCACUUGAAGAUCATT against HYAL1,inactive: -0.163
13,GACCAUGGAUAAUAAGAAATT against CLCN6,inactive: -0.136
14,CGUAUAAGGAGGAAGCAAATT against CTDSP2,inactive: 0.498
15,CUCUUCUGGUCAACUGCAATT against NRIP2,inactive: 0.415
16,CCAUUCUUCUAGCAACUGATT against DDX47,inactive: -0.398
17,ACAUCUCAGGGACCCAUUUTT against FTSJ2,inactive: -0.277
18,GGUCUUGAAGUGUACCCUATT against ITGAV,active: 1.17
19,GCCCUUACAUACAACUGGATT against ZDHHC6,inactive: 0.199
20,CCGGGUCUGUGAUAUAUGATT against NAGA,inactive: -0.247
